Results deposited as PubChem BioAssay AID1259424 (University of Nebraska Medical Center, 2018)
Aim: 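Rank knockdowns across the genome by resemblance to the KSR1 depletion profile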 (primary screen). Cells: human HCT116 colon cancer cells. Reagent: siRNA pool against human genes, 50 nM. Detection: 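Six signature mRNAs by branched-DNA multiplex assay, scaled to two housekeeping genes and non-targeting median, log2; matched to mean KSR1 knockdown profile by Pearson correlation and euclidean distance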. Reading the numbers: mean correlation with KSR1 profile: higher = expression change more like KSR1 knockdown; mean distance from KSR1 profile: higher = expression change less like KSR1 knockdown.
This is an unselected part of about 14,000 reagents. 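Higher correlation or smaller distance means closer resemblance to KSR1 loss; control wells, including KSR1 knockdowns, recur on many plates.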 Not all columns of the deposit are shown. The record does not give: the time to read-out.

DUSP1 (dual specificity phosphatase 1) showed mean correlation with KSR1 profile 0.0804; mean distance from KSR1 profile 3.21.
ABHD5 scored mean correlation with KSR1 profile -0.0106; mean distance from KSR1 profile 1.81.
For NCAM2 (neural cell adhesion molecule 2), the entry reads mean correlation with KSR1 profile 0.32; mean distance from KSR1 profile 1.25.
With knock-down of SIRT6 (sirtuin 6), the screen gave mean correlation with KSR1 profile -0.229; mean distance from KSR1 profile 3.08.
For INPP4A (inositol polyphosphate-4-phosphatase type I A), the entry reads mean correlation with KSR1 profile -0.461; mean distance from KSR1 profile 3.58.
After knock-down of GPX1 (glutathione peroxidase 1), the record shows mean correlation with KSR1 profile -0.691; mean distance from KSR1 profile 1.41.

In a second layout: entries from further up.
{"target gene": "INPP4A (inositol polyphosphate-4-phosphatase type I A)", "mean correlation with KSR1 profile": -0.461, "mean distance from KSR1 profile": 3.58}
{"target gene": "GPX1 (glutathione peroxidase 1)", "mean correlation with KSR1 profile": -0.691, "mean distance from KSR1 profile": 1.41}

Additional results:
Against UROD (uroporphyrinogen decarboxylase), the values are mean correlation with KSR1 profile -0.767; mean distance from KSR1 profile 1.64.
Depletion of PDGFRL (platelet derived growth factor receptor like) gave: mean correlation with KSR1 profile 0.431; mean distance from KSR1 profile 1.54.
ELAVL2 (ELAV like RNA binding protein 2) scored mean correlation with KSR1 profile -0.282; mean distance from KSR1 profile 2.12.
CCDC81 (coiled-coil domain containing 81) scored mean correlation with KSR1 profile -0.129; mean distance from KSR1 profile 1.25.
Knock-down of ERRFI1 (ERBB receptor feedback inhibitor 1) came out at: mean correlation with KSR1 profile -0.0678; mean distance from KSR1 profile 1.73.
Against CCDC71 (coiled-coil domain containing 71), the entry reads mean correlation with KSR1 profile -0.0231; mean distance from KSR1 profile 2.23.
